According to patent US8628922B2, “Screening method for cell aging” (Chronos Therapeutics Limited, priority 2009, dated 2014):
Like-named read-outs stand apart in the source and are kept apart here. At least one compound was matched to its structure with a doubt left.

Columns and labels:
Type in all cases: cell-based, S. cerevisiae
HA-Spt7 = details: snf1Δ strain (HA-Spt7), 10 μM rapamycin up to 3 hours
Gcn5 = details: snf1Δ strain, 10 μM rapamycin up to 3 hours
histone H3 = system: histone H3

In the case of CO[C@H]1C[C@@H]2CC[C@@H](C)[C@@](O)(O2)C(=O)C(=O)N2CCCC[C@H]2C(=O)O[C@H]([C@H](C)C[C@@H]2CC[C@@H](O)[C@H](OC)C2)CC(=O)[C@H](C)/C=C(\C)[C@@H](O)[C@@H](OC)C(=O)[C@H](C)C[C@H](C)/C=C/C=C/C=C/1C [rapamycin], the HA-Spt7 levels (HA-Spt7) is reported as “resistant”, the “Levels of Gcn5” value (Gcn5) is reported as “resistant” and the “K14ac level on histone H3” value (histone H3; H3 S10A (LPY8056 background), 10 μM rapamycin) is reported as “does not influence the rapamycin sensitivity”. The “K14ac level on histone H3” value (histone H3; gal83Δ strains, 10 μM rapamycin) was “some resistance”, the “K14ac level on histone H3” value (histone H3; rtg2Δ strain (BY4741 background), 10 μM rapamycin up to 3 hours) was “rapamycin sensitive” and the “K14ac level on histone H3” value (histone H3; snf1Δ strain, 10 μM rapamycin up to 3 hours) was “resistant”. The “K14ac level on histone H3” value (histone H3; strain expressing Spt7-217 (FY571), 10 μM rapamycin) was “rapamycin resistant” and the “K14ac level on histone H3” value (histone H3; strain lacking Ubp8, 10 μM rapamycin up to 3 hours) was “resistant”.
